Values quoted from earlier work, collected in publication PMC5385157 (Neuropharmacology, 2016).
pKi: −log10 of the molar value. Where two headings read alike, the source gives them in different places.

Target: human α2AAR
Details: ref NIMH Psychoactive Drug Screening Program (PDSP) Ki Database, cited from earlier work

## OCCN1CCN(CCCN2c3ccccc3Sc3ccc(C(F)(F)F)cc32)CC1 [Fluphenazine, fluphenazine]
read-out: Reported values at human α2AAR, Avg.
  pKi: 6.50
read-out: Reported values at human α2AAR, Range
  pKi: 6.50
